Source: patent US7547662
Results are given in words; binding and its absence hold for the method and conditions named. Some entries that bind do so weakly or less than the wild type.

Sequences of proteins named here, by UniProt entry; tags and fusion partners are left off. Residues count along the entry.
UniProt P00760, residues 24-246: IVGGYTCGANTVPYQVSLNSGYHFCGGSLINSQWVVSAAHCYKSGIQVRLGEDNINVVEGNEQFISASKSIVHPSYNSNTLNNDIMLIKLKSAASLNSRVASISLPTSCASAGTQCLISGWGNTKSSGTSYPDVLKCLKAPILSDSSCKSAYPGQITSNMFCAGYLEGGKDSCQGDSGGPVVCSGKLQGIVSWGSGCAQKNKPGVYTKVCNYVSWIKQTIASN

How the values were obtained:
[1] = molecular target: Bovine trypsin (Sigma Chemical Co.) (bovine) (UniProt P00760); test: ITC
[2] = molecular target: Bovine trypsin (Sigma Chemical Co.) (bovine) (UniProt P00760); test: library screen and ITC
[3] = molecular target: Bovine trypsin (Sigma Chemical Co.) (bovine) (UniProt P00760); test: plate screen, adsorbed lysate protein probed with Oregon Green labelled bovine trypsin

Measured: binding

B1: Loop i variant from library screening (parental binding agent with loop i RYLRYPS, SEQ ID NO:33) (designed binder, not shown: small tags and cut ends)
chain: MDVQLQASGGGSVQAGGSLRLSCAASRYLRYPSCAGWFRQAPGKEREGVAAINAGAAGTSYADSVKGRFTISQLAGAANVYLLMNSLEPEDTAIYYCAAGHAGAAGAATCGHGLSTAGAAGAPWGQGTQVTVSS
binds: all assays above
